Assay [1] addresses human CaSR C129S + C131S (CSCS) double mutant with Flag or HA and SNAP tags (human) (UniProt P41180). Kind of assay: non-reducing SDS-PAGE, fluorescent-labelled blot; HEK293 cells 24 h after transfection; surface receptors labelled with 100 nM SNAP-Surface 649; lysed in 50 mM Tris-HCl pH 7.4, 150 mM NaCl, 1% NP-40, 0.5% sodium deoxycholate, 0.1% SDS; SDS-PAGE (8%) without DTT (reducing conditions: 100 mM DTT).

Assay [2] deals with human CaSR C129S + C131S (CSCS), Flag-SNAP-tagged, with Rluc or YFP at the C-terminus (human) (UniProt P41180). As to the kind of experiment: FRET or BRET; BRET saturation in HEK293 cells: constant amount of Rluc-tagged receptor (0.2 ug plasmid), increasing amount of YFP-tagged receptor (0-1 ug); HBS buffer, 37 C, coelenterazine H 5 uM. For orientation: Bioluminescence resonance energy transfer reports proximity on the nanometre scale.

Assay [3] concerns the target T1, wild-type human calcium-sensing receptor (CaSR) with Flag or HA and SNAP tags (human), P41180.
T1 chain: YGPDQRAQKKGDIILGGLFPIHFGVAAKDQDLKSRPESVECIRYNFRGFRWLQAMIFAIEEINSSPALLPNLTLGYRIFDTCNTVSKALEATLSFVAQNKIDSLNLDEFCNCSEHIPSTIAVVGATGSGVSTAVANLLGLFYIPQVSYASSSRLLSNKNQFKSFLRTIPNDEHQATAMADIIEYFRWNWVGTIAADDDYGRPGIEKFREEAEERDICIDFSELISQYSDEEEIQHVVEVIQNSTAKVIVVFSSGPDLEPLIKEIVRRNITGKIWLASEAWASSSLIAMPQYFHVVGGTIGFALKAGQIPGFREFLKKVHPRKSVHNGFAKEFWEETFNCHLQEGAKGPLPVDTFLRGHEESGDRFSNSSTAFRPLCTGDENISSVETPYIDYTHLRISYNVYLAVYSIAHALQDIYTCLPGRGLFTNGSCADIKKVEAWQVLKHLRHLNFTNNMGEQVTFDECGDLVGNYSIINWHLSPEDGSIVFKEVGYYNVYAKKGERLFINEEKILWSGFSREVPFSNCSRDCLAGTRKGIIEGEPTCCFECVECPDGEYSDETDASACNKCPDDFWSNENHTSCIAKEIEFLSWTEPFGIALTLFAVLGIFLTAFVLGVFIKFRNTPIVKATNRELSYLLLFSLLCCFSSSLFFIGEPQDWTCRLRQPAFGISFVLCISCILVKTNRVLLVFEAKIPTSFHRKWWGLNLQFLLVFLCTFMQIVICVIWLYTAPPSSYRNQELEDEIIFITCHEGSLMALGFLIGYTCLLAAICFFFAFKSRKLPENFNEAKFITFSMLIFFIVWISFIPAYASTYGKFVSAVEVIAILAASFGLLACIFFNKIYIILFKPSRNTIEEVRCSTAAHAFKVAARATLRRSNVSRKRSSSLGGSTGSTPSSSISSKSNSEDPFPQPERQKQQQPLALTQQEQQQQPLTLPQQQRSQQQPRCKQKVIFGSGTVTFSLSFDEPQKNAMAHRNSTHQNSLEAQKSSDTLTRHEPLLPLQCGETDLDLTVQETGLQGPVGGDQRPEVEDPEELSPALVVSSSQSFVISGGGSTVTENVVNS
Kind of assay: non-reducing SDS-PAGE, fluorescent-labelled blot; HEK293 cells 24 h after transfection; surface receptors labelled with 100 nM SNAP-Surface 649; lysed in 50 mM Tris-HCl pH 7.4, 150 mM NaCl, 1% NP-40, 0.5% sodium deoxycholate, 0.1% SDS; SDS-PAGE (8%) without DTT (reducing conditions: 100 mM DTT). Particulars: remark: other sources report otherwise.

The target of assay [4] is human CaSR CSCS + S132C (C129S + C131S + S132C) with Flag or HA and SNAP tags (human) (UniProt P41180). The description is as above.

No constants are given. Whether binding was seen depends on the method and setting. For some of these results: Binding seen in cells or lysates may run through a third protein. Some binding calls cover weakened binding; strength is not graded here. Where a sequence is shown, tags or fusion partners need not be part of it.

B1: human CaSR C129S + C131S (CSCS) double mutant with Flag or HA and SNAP tags (receptor, UniProt P41180-1 20-1078)
chain: YGPDQRAQKKGDIILGGLFPIHFGVAAKDQDLKSRPESVECIRYNFRGFRWLQAMIFAIEEINSSPALLPNLTLGYRIFDTCNTVSKALEATLSFVAQNKIDSLNLDEFSNSSEHIPSTIAVVGATGSGVSTAVANLLGLFYIPQVSYASSSRLLSNKNQFKSFLRTIPNDEHQATAMADIIEYFRWNWVGTIAADDDYGRPGIEKFREEAEERDICIDFSELISQYSDEEEIQHVVEVIQNSTAKVIVVFSSGPDLEPLIKEIVRRNITGKIWLASEAWASSSLIAMPQYFHVVGGTIGFALKAGQIPGFREFLKKVHPRKSVHNGFAKEFWEETFNCHLQEGAKGPLPVDTFLRGHEESGDRFSNSSTAFRPLCTGDENISSVETPYIDYTHLRISYNVYLAVYSIAHALQDIYTCLPGRGLFTNGSCADIKKVEAWQVLKHLRHLNFTNNMGEQVTFDECGDLVGNYSIINWHLSPEDGSIVFKEVGYYNVYAKKGERLFINEEKILWSGFSREVPFSNCSRDCLAGTRKGIIEGEPTCCFECVECPDGEYSDETDASACNKCPDDFWSNENHTSCIAKEIEFLSWTEPFGIALTLFAVLGIFLTAFVLGVFIKFRNTPIVKATNRELSYLLLFSLLCCFSSSLFFIGEPQDWTCRLRQPAFGISFVLCISCILVKTNRVLLVFEAKIPTSFHRKWWGLNLQFLLVFLCTFMQIVICVIWLYTAPPSSYRNQELEDEIIFITCHEGSLMALGFLIGYTCLLAAICFFFAFKSRKLPENFNEAKFITFSMLIFFIVWISFIPAYASTYGKFVSAVEVIAILAASFGLLACIFFNKIYIILFKPSRNTIEEVRCSTAAHAFKVAARATLRRSNVSRKRSSSLGGSTGSTPSSSISSKSNSEDPFPQPERQKQQQPLALTQQEQQQQPLTLPQQQRSQQQPRCKQKVIFGSGTVTFSLSFDEPQKNAMAHRNSTHQNSLEAQKSSDTLTRHEPLLPLQCGETDLDLTVQETGLQGPVGGDQRPEVEDPEELSPALVVSSSQSFVISGGGSTVTENVVNS
modifications: SNAP-Surface 649 on the SNAP tag
Regarding B1, the binding result in assay [1] was “binds”.

B2: human CaSR C129S + C131S (CSCS), Flag-SNAP-tagged, with Rluc or YFP at the C-terminus (receptor, UniProt P41180-1 20-1078)
chain: YGPDQRAQKKGDIILGGLFPIHFGVAAKDQDLKSRPESVECIRYNFRGFRWLQAMIFAIEEINSSPALLPNLTLGYRIFDTCNTVSKALEATLSFVAQNKIDSLNLDEFSNSSEHIPSTIAVVGATGSGVSTAVANLLGLFYIPQVSYASSSRLLSNKNQFKSFLRTIPNDEHQATAMADIIEYFRWNWVGTIAADDDYGRPGIEKFREEAEERDICIDFSELISQYSDEEEIQHVVEVIQNSTAKVIVVFSSGPDLEPLIKEIVRRNITGKIWLASEAWASSSLIAMPQYFHVVGGTIGFALKAGQIPGFREFLKKVHPRKSVHNGFAKEFWEETFNCHLQEGAKGPLPVDTFLRGHEESGDRFSNSSTAFRPLCTGDENISSVETPYIDYTHLRISYNVYLAVYSIAHALQDIYTCLPGRGLFTNGSCADIKKVEAWQVLKHLRHLNFTNNMGEQVTFDECGDLVGNYSIINWHLSPEDGSIVFKEVGYYNVYAKKGERLFINEEKILWSGFSREVPFSNCSRDCLAGTRKGIIEGEPTCCFECVECPDGEYSDETDASACNKCPDDFWSNENHTSCIAKEIEFLSWTEPFGIALTLFAVLGIFLTAFVLGVFIKFRNTPIVKATNRELSYLLLFSLLCCFSSSLFFIGEPQDWTCRLRQPAFGISFVLCISCILVKTNRVLLVFEAKIPTSFHRKWWGLNLQFLLVFLCTFMQIVICVIWLYTAPPSSYRNQELEDEIIFITCHEGSLMALGFLIGYTCLLAAICFFFAFKSRKLPENFNEAKFITFSMLIFFIVWISFIPAYASTYGKFVSAVEVIAILAASFGLLACIFFNKIYIILFKPSRNTIEEVRCSTAAHAFKVAARATLRRSNVSRKRSSSLGGSTGSTPSSSISSKSNSEDPFPQPERQKQQQPLALTQQEQQQQPLTLPQQQRSQQQPRCKQKVIFGSGTVTFSLSFDEPQKNAMAHRNSTHQNSLEAQKSSDTLTRHEPLLPLQCGETDLDLTVQETGLQGPVGGDQRPEVEDPEELSPALVVSSSQSFVISGGGSTVTENVVNS
For B2, the binding entry in assay [2] is reported as “binds”.

B3: wild-type human calcium-sensing receptor (CaSR) with Flag or HA and SNAP tags, P41180-1 20-1078 (receptor)
chain: YGPDQRAQKKGDIILGGLFPIHFGVAAKDQDLKSRPESVECIRYNFRGFRWLQAMIFAIEEINSSPALLPNLTLGYRIFDTCNTVSKALEATLSFVAQNKIDSLNLDEFCNCSEHIPSTIAVVGATGSGVSTAVANLLGLFYIPQVSYASSSRLLSNKNQFKSFLRTIPNDEHQATAMADIIEYFRWNWVGTIAADDDYGRPGIEKFREEAEERDICIDFSELISQYSDEEEIQHVVEVIQNSTAKVIVVFSSGPDLEPLIKEIVRRNITGKIWLASEAWASSSLIAMPQYFHVVGGTIGFALKAGQIPGFREFLKKVHPRKSVHNGFAKEFWEETFNCHLQEGAKGPLPVDTFLRGHEESGDRFSNSSTAFRPLCTGDENISSVETPYIDYTHLRISYNVYLAVYSIAHALQDIYTCLPGRGLFTNGSCADIKKVEAWQVLKHLRHLNFTNNMGEQVTFDECGDLVGNYSIINWHLSPEDGSIVFKEVGYYNVYAKKGERLFINEEKILWSGFSREVPFSNCSRDCLAGTRKGIIEGEPTCCFECVECPDGEYSDETDASACNKCPDDFWSNENHTSCIAKEIEFLSWTEPFGIALTLFAVLGIFLTAFVLGVFIKFRNTPIVKATNRELSYLLLFSLLCCFSSSLFFIGEPQDWTCRLRQPAFGISFVLCISCILVKTNRVLLVFEAKIPTSFHRKWWGLNLQFLLVFLCTFMQIVICVIWLYTAPPSSYRNQELEDEIIFITCHEGSLMALGFLIGYTCLLAAICFFFAFKSRKLPENFNEAKFITFSMLIFFIVWISFIPAYASTYGKFVSAVEVIAILAASFGLLACIFFNKIYIILFKPSRNTIEEVRCSTAAHAFKVAARATLRRSNVSRKRSSSLGGSTGSTPSSSISSKSNSEDPFPQPERQKQQQPLALTQQEQQQQPLTLPQQQRSQQQPRCKQKVIFGSGTVTFSLSFDEPQKNAMAHRNSTHQNSLEAQKSSDTLTRHEPLLPLQCGETDLDLTVQETGLQGPVGGDQRPEVEDPEELSPALVVSSSQSFVISGGGSTVTENVVNS
modifications: here or on the partner: SNAP-Surface 649 on the SNAP tag; SNAP-Surface 649 on the SNAP tag
B3: the binding entry in assay [3] is on record as “binds”.

B4: human CaSR CSCS + S132C (C129S + C131S + S132C) with Flag or HA and SNAP tags (receptor, UniProt P41180-1 20-1078)
chain: YGPDQRAQKKGDIILGGLFPIHFGVAAKDQDLKSRPESVECIRYNFRGFRWLQAMIFAIEEINSSPALLPNLTLGYRIFDTCNTVSKALEATLSFVAQNKIDSLNLDEFSNSCEHIPSTIAVVGATGSGVSTAVANLLGLFYIPQVSYASSSRLLSNKNQFKSFLRTIPNDEHQATAMADIIEYFRWNWVGTIAADDDYGRPGIEKFREEAEERDICIDFSELISQYSDEEEIQHVVEVIQNSTAKVIVVFSSGPDLEPLIKEIVRRNITGKIWLASEAWASSSLIAMPQYFHVVGGTIGFALKAGQIPGFREFLKKVHPRKSVHNGFAKEFWEETFNCHLQEGAKGPLPVDTFLRGHEESGDRFSNSSTAFRPLCTGDENISSVETPYIDYTHLRISYNVYLAVYSIAHALQDIYTCLPGRGLFTNGSCADIKKVEAWQVLKHLRHLNFTNNMGEQVTFDECGDLVGNYSIINWHLSPEDGSIVFKEVGYYNVYAKKGERLFINEEKILWSGFSREVPFSNCSRDCLAGTRKGIIEGEPTCCFECVECPDGEYSDETDASACNKCPDDFWSNENHTSCIAKEIEFLSWTEPFGIALTLFAVLGIFLTAFVLGVFIKFRNTPIVKATNRELSYLLLFSLLCCFSSSLFFIGEPQDWTCRLRQPAFGISFVLCISCILVKTNRVLLVFEAKIPTSFHRKWWGLNLQFLLVFLCTFMQIVICVIWLYTAPPSSYRNQELEDEIIFITCHEGSLMALGFLIGYTCLLAAICFFFAFKSRKLPENFNEAKFITFSMLIFFIVWISFIPAYASTYGKFVSAVEVIAILAASFGLLACIFFNKIYIILFKPSRNTIEEVRCSTAAHAFKVAARATLRRSNVSRKRSSSLGGSTGSTPSSSISSKSNSEDPFPQPERQKQQQPLALTQQEQQQQPLTLPQQQRSQQQPRCKQKVIFGSGTVTFSLSFDEPQKNAMAHRNSTHQNSLEAQKSSDTLTRHEPLLPLQCGETDLDLTVQETGLQGPVGGDQRPEVEDPEELSPALVVSSSQSFVISGGGSTVTENVVNS
modifications: SNAP-Surface 649 on the SNAP tag
Consider B4, for which the binding result in assay [4] is “binds”.

These data come from publication PMC11045811.
